Data on 1 molecule can be found in patent US20230382991A1.

Chains of the proteins cited; added tags and fusions are not shown. Residues count along the entry.
UniProt Q8NHL6, residues 24-650: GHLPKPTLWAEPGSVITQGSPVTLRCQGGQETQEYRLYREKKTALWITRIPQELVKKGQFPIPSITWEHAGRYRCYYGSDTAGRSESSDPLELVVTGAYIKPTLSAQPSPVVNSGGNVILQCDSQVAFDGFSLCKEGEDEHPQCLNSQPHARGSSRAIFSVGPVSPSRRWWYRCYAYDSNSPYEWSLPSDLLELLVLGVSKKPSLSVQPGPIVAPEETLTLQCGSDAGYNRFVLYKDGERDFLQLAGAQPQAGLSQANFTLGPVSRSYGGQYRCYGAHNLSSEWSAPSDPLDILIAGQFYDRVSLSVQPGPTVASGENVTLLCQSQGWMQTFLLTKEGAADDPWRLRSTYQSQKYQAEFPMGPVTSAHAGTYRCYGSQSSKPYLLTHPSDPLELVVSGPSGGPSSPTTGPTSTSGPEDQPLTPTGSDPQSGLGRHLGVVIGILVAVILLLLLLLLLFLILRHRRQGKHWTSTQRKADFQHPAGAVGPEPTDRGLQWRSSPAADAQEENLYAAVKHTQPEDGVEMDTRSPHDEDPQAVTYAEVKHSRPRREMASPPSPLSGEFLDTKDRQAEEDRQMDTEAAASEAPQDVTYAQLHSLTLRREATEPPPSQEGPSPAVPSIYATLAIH

The assay concerns the target human LILRB1 expressed on stably transduced CHO cells (human) (UniProt Q8NHL6). Nature of the assay: flow cytometry, same method as FIG. 1B (CHO cells expressing human LILRB1).

These are yes or no findings as the source states them, for the method shown. Some entries that bind do so weakly or less than the wild type. Tags and fused reporters may be left off the sequences shown.

B1: BF9 humanized antagonist antibody of Family AB2 (antibody, V domains shown)
VH: QVQLVESGGGLVKPGGSLRLSCAASGFTFDSYGMHWIRQAPGKGLEWVAYISSGSSTSYYADTVKGRFTISRDDAKNSLYLQMNSLRAEDTAVYYCARPGSNWDVYYAMDYWGQGTLVTVSS
VL: DIVLTQSPDSLAVSLGERATINCRASQSVSTSSYSYMHWYQQKPGQPPKLLIKNASNLESGVPDRFSGSGSGTDFTLTISSLQAEDVAVYYCQHSWEIPFTFGPGTKVDIK
For B1, the binding result is recorded as “binds”.
